# From paper PMC11671999
# Protein sequences, listed by entry. Tags and fused reporters are not part of them.
# UniProt Q9UM07: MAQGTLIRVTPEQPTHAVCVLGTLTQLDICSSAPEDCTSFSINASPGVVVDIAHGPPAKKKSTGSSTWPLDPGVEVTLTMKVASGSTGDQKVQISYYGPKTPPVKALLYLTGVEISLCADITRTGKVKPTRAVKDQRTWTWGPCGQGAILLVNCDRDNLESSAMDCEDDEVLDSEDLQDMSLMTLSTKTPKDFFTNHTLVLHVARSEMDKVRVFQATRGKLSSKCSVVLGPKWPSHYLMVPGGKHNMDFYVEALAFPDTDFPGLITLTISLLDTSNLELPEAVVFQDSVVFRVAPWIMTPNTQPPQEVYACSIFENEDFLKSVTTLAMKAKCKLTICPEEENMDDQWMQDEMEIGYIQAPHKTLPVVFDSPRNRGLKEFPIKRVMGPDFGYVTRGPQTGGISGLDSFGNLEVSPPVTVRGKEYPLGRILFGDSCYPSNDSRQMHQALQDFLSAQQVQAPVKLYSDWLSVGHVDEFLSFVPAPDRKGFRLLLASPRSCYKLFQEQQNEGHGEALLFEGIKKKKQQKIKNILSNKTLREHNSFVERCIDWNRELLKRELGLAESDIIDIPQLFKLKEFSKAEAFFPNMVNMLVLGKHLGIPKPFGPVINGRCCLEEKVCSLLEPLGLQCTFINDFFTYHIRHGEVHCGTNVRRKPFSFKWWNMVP
# UniProt P13645: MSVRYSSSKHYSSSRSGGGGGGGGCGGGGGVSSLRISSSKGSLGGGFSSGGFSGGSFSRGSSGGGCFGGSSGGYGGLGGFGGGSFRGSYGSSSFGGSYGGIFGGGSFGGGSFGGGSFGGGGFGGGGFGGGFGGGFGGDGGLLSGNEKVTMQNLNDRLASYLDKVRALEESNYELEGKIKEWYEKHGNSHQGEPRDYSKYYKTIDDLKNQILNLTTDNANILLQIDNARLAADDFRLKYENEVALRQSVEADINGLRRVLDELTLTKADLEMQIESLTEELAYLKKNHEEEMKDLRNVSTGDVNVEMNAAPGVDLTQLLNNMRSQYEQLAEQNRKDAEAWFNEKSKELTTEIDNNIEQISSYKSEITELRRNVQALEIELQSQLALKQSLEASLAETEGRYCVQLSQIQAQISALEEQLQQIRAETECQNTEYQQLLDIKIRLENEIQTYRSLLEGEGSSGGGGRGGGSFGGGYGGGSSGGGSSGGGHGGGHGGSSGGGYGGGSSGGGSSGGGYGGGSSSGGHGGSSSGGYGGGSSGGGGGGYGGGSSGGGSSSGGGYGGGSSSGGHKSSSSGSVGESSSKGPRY
# UniProt P04264: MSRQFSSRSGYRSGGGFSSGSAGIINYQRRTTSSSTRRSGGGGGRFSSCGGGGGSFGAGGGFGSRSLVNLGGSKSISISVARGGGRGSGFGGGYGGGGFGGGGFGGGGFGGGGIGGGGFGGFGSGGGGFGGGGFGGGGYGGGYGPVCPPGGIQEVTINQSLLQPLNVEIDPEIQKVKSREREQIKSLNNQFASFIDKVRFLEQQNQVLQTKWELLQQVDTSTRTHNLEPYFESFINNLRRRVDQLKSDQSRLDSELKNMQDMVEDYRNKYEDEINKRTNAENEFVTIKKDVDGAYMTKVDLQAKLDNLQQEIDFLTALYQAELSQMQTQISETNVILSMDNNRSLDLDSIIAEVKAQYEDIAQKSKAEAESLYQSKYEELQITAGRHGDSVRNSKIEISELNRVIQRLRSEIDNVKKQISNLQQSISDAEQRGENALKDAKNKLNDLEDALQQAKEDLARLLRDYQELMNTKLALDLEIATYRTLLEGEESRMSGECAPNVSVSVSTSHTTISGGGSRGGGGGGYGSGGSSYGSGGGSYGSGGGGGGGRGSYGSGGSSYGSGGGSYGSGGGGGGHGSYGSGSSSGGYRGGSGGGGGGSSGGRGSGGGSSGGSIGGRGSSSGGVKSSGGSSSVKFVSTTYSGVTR
# UniProt P35908: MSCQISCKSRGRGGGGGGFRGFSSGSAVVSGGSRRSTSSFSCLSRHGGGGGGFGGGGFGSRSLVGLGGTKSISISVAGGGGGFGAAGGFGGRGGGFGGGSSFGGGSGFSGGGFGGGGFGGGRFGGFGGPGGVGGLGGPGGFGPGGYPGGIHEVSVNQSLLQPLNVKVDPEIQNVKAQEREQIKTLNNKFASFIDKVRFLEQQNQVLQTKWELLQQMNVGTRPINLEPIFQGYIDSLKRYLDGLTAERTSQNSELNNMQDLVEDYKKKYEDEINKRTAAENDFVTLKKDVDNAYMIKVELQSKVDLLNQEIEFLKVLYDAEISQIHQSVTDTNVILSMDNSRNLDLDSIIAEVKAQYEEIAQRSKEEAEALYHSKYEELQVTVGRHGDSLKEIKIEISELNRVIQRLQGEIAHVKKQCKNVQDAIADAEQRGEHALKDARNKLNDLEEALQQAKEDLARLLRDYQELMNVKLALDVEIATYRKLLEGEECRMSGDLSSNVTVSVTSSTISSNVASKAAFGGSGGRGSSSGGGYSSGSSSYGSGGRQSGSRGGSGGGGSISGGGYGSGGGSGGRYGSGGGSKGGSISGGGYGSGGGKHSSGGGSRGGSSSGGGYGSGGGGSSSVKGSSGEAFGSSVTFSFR
# These are yes or no findings as the source states them, for the method shown. Binding seen in cells or lysates may run through a third protein. Some results given as binding are weak or reduced against the parent protein; the word gives no strength.
# B1: Keratin 9 (K9) (protein, UniProt P35527 1-623)
# chain: MSCRQFSSSYLSRSGGGGGGGLGSGGSIRSSYSRFSSSGGGGGGGRFSSSSGYGGGSSRVCGRGGGGSFGYSYGGGSGGGFSASSLGGGFGGGSRGFGGASGGGYSSSGGFGGGFGGGSGGGFGGGYGSGFGGFGGFGGGAGGGDGGILTANEKSTMQELNSRLASYLDKVQALEEANNDLENKIQDWYDKKGPAAIQKNYSPYYNTIDDLKDQIVDLTVGNNKTLLDIDNTRMTLDDFRIKFEMEQNLRQGVDADINGLRQVLDNLTMEKSDLEMQYETLQEELMALKKNHKEEMSQLTGQNSGDVNVEINVAPGKDLTKTLNDMRQEYEQLIAKNRKDIENQYETQITQIEHEVSSSGQEVQSSAKEVTQLRHGVQELEIELQSQLSKKAALEKSLEDTKNRYCGQLQMIQEQISNLEAQITDVRQEIECQNQEYSLLLSIKMRLEKEIETYHNLLEGGQEDFESSGAGKIGLGGRGGSGGSYGRGSRGGSGGSYGGGGSGGGYGGGSGSRGGSGGSYGGGSGSGGGSGGGYGGGSGGGHSGGSGGGHSGGSGGNYGGGSGSGGGSGGGYGGGSGSRGGSGGSHGGGSGFGGESGGSYGGGEEASGSGGGYGGGSGKSSHS
# Molecular target: protein arginine deiminase type 4 (PAD4) (human (endogenous in GES-1)) (UniProt Q9UM07)
# Assay: co-IP; immunoprecipitation and blot of PAD4 and keratins; details in the supplemental methods
row,binding,Molecule
1,no binding,Keratin 10 (K10) (from UniProt P13645 1-584)
2,binds,Keratin 1 (K1) (from UniProt P04264 1-644)
3,no binding,Keratin 2 (K2) (from UniProt P35908 1-639)
4,no binding,B1
